Data source: PubChem BioAssay AID743121 (NCATS, 2013)
The whole screen tested about 26,000 reagents; shown is a random part of them. In the full data, 167 (0.63%) got an active call. 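Calls are per gene from RSA p-values that are not deposited; an individual active-marked siRNA can sensitise only weakly.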 A number with no mark means an inactive call. The numbers tell different reagents against one gene apart. Not all columns of the deposit are shown.

- Screen: 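Knock-downs that sensitise breast cancer cells to camptothecin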 (primary screen)
- System: MDA-MB-231 cells, a human breast cancer line
- Reagents: single siRNA against human genes, 20 nM siRNA (0.8 pmol per well)
- Timing: 120 h (drug added 48 h after transfection, read 72 h later)
- Challenge: camptothecin 20 nM (about EC30) for 72 h; vehicle 0.1% DMSO in parallel plates
- Read-out: 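Cell viability by ATP luminescence (CellTiter-Glo) as % of non-targeting siRNA wells, and the log2 ratio of viability without drug over viability with camptothecin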
- Scale: log2 vehicle/camptothecin viability: higher = stronger sensitisation to camptothecin
- Rule for the call: 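Active genes have an RSA gene-level p-value below 0.001, computed from the ratios of their separate siRNAs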

| gene knocked down | reagent no. | log2 vehicle/camptothecin viability |
| --- | --- | --- |
| CTNNA1 | 1 | -0.416 |
| CTNNA1 | 2 | -0.184 |
| CTNNA1 | 3 | 0.00652 |
| CTNNA1 | 4 | -0.456 |
| ALPK3 | 1 | -0.527 |
| ALPK3 | 2 | -0.442 |
| ALPK3 | 3 | 0.154 |
| ALPK3 | 4 | -0.547 |
| PNP | 1 | -0.0184 |
| PNP | 2 | -0.0172 |
| PNP | 3 | 0.0528 |
| PNP | 4 | 0.421 |
| TNFRSF10D | 1 | -0.0212 |
| TNFRSF10D | 2 | 0.392 |
| TNFRSF10D | 3 | -0.0418 |
| TNFRSF10D | 4 | -0.109 |

3 entries from above in another layout:
PNP #1 | log2 vehicle/camptothecin viability: -0.0184
PNP #2 | log2 vehicle/camptothecin viability: -0.0172
PNP #3 | log2 vehicle/camptothecin viability: 0.0528

The listing continues:
| gene knocked down | reagent no. | log2 vehicle/camptothecin viability |
| --- | --- | --- |
| RUNX2 | 1 | -0.283 |
| RUNX2 | 2 | -0.115 |
| RUNX2 | 3 | -0.341 |
| RUNX2 | 4 | -0.202 |
| CYP27C1 | 1 | -0.077 |
| CYP27C1 | 2 | -0.202 |
| CYP27C1 | 3 | -0.0182 |
| CYP27C1 | 4 | -0.23 |
| SLC7A13 | 1 | -0.142 |
| SLC7A13 | 2 | -0.285 |
| SLC7A13 | 3 | 0.0569 |
| SLC7A13 | 4 | -0.139 |
